Results on 2 molecules are retold here after article PMC8032900.

Results are given in words; binding and its absence hold for the method and conditions named. Binding calls can cover weak binding; strength is not graded here.

Holding throughout (experiment): two-hybrid; GAL4 system; BD fusions (pDEST32) in PJ69-4α mated with AD fusions (pDEST22) in PJ69-4a; diploids spotted on SD-LWH without or with 1, 2, 10, 25, 50, 100 mM 3AT, 10 days at 28°C, triplicate; growth scored 0 to 3; every protein tested as BD and as AD fusion (target = BD fusion, binder = AD fusion); Figure 6A at 2 mM 3AT, network of Figure 6B at 10 mM 3AT
For test [1], the target named is T1, AtNFY-B2 (NUCLEAR FACTOR-Y subunit B2), Arabidopsis thaliana (A. thaliana) (UniProt Q9FGJ3).
T1 sequence: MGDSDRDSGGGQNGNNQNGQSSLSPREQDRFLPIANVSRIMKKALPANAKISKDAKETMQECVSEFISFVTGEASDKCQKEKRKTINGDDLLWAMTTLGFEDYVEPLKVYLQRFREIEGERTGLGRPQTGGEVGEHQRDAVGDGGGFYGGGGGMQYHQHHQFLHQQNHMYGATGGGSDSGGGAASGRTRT

The target of test [2] is M. truncatula NF-YC-like protein Medtr3g099180 (Medicago truncatula).
The target of test [3] is MtFE (Medtr6g444980), Medicago truncatula FE homolog (Medicago truncatula).

Turning to “M. truncatula NF-YC-like protein Medtr3g099180 (Medicago truncatula)”, in test [1], the binding entry is reported as “binds”.

B1: AtNFY-B2 (NUCLEAR FACTOR-Y subunit B2), Arabidopsis thaliana (protein, UniProt Q9FGJ3 1-190)
chain: MGDSDRDSGGGQNGNNQNGQSSLSPREQDRFLPIANVSRIMKKALPANAKISKDAKETMQECVSEFISFVTGEASDKCQKEKRKTINGDDLLWAMTTLGFEDYVEPLKVYLQRFREIEGERTGLGRPQTGGEVGEHQRDAVGDGGGFYGGGGGMQYHQHHQFLHQQNHMYGATGGGSDSGGGAASGRTRT
With B1, the binding result in test [2] and in test [3] was “binds” throughout.
